# Measured values: patent US7862751B2, “Formulation of fine particles using liquefield or dense gases” (MAP Pharmaceuticals, Inc., priority 2002, dated 2011)
# At least one compound was matched to its structure with a doubt left.
# Test: Particle size by SEM
# Format: physicochemical
smiles,measurement,setting,value
"CC(C)OC(=O)C(C)(C)Oc1ccc(C(=O)c2ccc(Cl)cc2)cc1 [fenofibrate, 2-[4-(4-chlorobenzoyl)phenoxy]-2-methyl-propanoic acid, 1-methylethyl ester]",particle size,"processed at 50° C. and 190 bar CO2, not aggregated",5-10 microns
same,particle size,"unprocessed, large irregular crystals",60 micron
